Measurements reported in PubChem BioAssay AID1159584 (Peter MacCallum Cancer Centre, 2016).
Test: 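Genes whose loss is lethal only together with E-cadherin loss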 (primary screen). Cells: human MCF10A breast epithelial cells, parental and CDH1-null. Reagents: siRNA against human genes. Measured: 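Cell viability by CellTiter-Glo ATP luminescence, each line scaled to the mean of mock wells across plates, then CDH1-null over parental ratio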. Scale: CDH1-null / parental viability ratio: higher = CDH1-null cells survive relatively better than parental; CDH1-null viability vs mock: higher = more viable CDH1-null cells; parental viability vs mock: higher = more viable parental cells.
The whole screen tested about 18,000 reagents; shown is an unselected part. No sequences are given here. The record does not give: the amount of reagent, the time to read-out.

Target gene	CDH1-null / parental viability ratio	CDH1-null viability vs mock (fraction of mock)	parental viability vs mock (fraction of mock)
KLHL15	1.26	1.06	0.84
TRIM32	0.81	0.76	0.94
TACR3	0.98	0.82	0.84
SNAI3	1.84	0.9	0.49
AACS	0.73	0.38	0.52
ZNF207	1.4	0.66	0.47
AURKC	0.95	0.76	0.8
GPR26	0.83	0.86	1.04
RALGAPA2	1.02	0.95	0.93
SLC30A5	1.1	1.19	1.08
TBX4	1.09	0.59	0.54
VWCE	0.85	0.88	1.04
COXFA4L3	0.9	0.57	0.63
TIPARP	0.99	0.69	0.7
C20orf144	0.71	0.52	0.73
FAF2	0.88	0.98	1.11
SFXN3	0.9	0.79	0.88
HIC1	0.63	0.52	0.82
ZNF780A	1.1	0.86	0.78
SLC35A5	0.87	0.45	0.52
ABCG8	1.07	0.96	0.9
APOBEC3B	1.03	0.94	0.91
ENKD1	0.83	0.97	1.17
HPGD	0.75	0.69	0.92
KIRREL3	1.17	0.96	0.82
OR5AK2	1.26	0.96	0.76
TMBIM6	1.02	0.96	0.94
ADAM18	1.12	0.48	0.43

Reprinted from the listing for reference:
Target gene	CDH1-null / parental viability ratio	CDH1-null viability vs mock (fraction of mock)	parental viability vs mock (fraction of mock)
KIRREL3	1.17	0.96	0.82
OR5AK2	1.26	0.96	0.76
